Source: the supplement of paper PMC8728848
The other results are listed elsewhere or left out.

What was measured:
Test in all cases: glycan array binding signal (z-score within array); higher = stronger binding
Conditions in all cases: glycan notation: IUPAC condensed, linker removed
[1] = target: GlcNAc(b1-2)[GlcNAc(b1-4)]Man(a1-3)[GlcNAc(b1-4)][GlcNAc(b1-2)[GlcNAc(b1-6)]Man(a1-6)]Man(b1-4)GlcNAc(b1-4)[Fuc(a1-6)]GlcNAc
How it was run: (§1)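 Columns mapping to the same glycan were averaged after glycan names were converted to IUPAC-condensed notation. The data come from 3228 arrays in the Consortium for Functional Glycomics database, limited to those with an available protein sequence. Binding is reported as a within-array Z-score averaged across arrays of one protein sequence and across linkers.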

[2] = target: GlcNAc(b1-2)[GlcNAc(b1-6)]Man(a1-6)[GlcNAc(b1-2)Man(a1-3)]Man(b1-4)GlcNAc(b1-4)[Fuc(a1-6)]GlcNAc
How it was run: as §1

[3] = target: GlcNAc(b1-2)[GlcNAc(b1-6)]Man(a1-6)[GlcNAc(b1-4)][GlcNAc(b1-2)Man(a1-3)]Man(b1-4)GlcNAc(b1-4)GlcNAc
How it was run: as §1

GlcNAc(b1-3)Fuc = target: GlcNAc(b1-3)Fuc
How it was run: as §1

GlcNAc(b1-3)Gal = target: GlcNAc(b1-3)Gal
How it was run: as §1

GlcNAc(b1-3)Gal(b1-4)Glc = target: GlcNAc(b1-3)Gal(b1-4)Glc
How it was run: as §1

[4] = target: GlcNAc(b1-3)Gal(b1-4)GlcNAc
How it was run: as §1

[5] = target: GlcNAc(b1-3)Gal(b1-4)GlcNAc(b1-2)Man(a1-3)[GlcNAc(b1-3)Gal(b1-4)GlcNAc(b1-2)Man(a1-6)]Man(b1-4)GlcNAc(b1-4)GlcNAc
How it was run: as §1

[6] = target: GlcNAc(b1-3)Gal(b1-4)GlcNAc(b1-2)Man(a1-3)[GlcNAc(b1-3)Gal(b1-4)GlcNAc(b1-2)Man(a1-6)]Man(b1-4)GlcNAc(b1-4)[Fuc(a1-6)]GlcNAc
How it was run: as §1

[7] = target: GlcNAc(b1-3)Gal(b1-4)GlcNAc(b1-2)[GlcNAc(b1-3)Gal(b1-4)GlcNAc(b1-6)]Man(a1-6)[GlcNAc(b1-3)Gal(b1-4)GlcNAc(b1-2)Man(a1-3)]Man(b1-4)GlcNAc(b1-4)GlcNAc
How it was run: as §1

[8] = target: GlcNAc(b1-3)Gal(b1-4)GlcNAc(b1-3)Gal(b1-4)GlcNAc
How it was run: as §1

[9] = target: GlcNAc(b1-3)Gal(b1-4)GlcNAc(b1-3)Gal(b1-4)GlcNAc(b1-2)Man(a1-3)[GlcNAc(b1-3)Gal(b1-4)GlcNAc(b1-3)Gal(b1-4)GlcNAc(b1-2)Man(a1-6)]Man(b1-4)GlcNAc(b1-4)GlcNAc
How it was run: as §1

[10] = target: GlcNAc(b1-3)Gal(b1-4)GlcNAc(b1-3)Gal(b1-4)GlcNAc(b1-2)Man(a1-3)[GlcNAc(b1-3)Gal(b1-4)GlcNAc(b1-3)Gal(b1-4)GlcNAc(b1-2)Man(a1-6)]Man(b1-4)GlcNAc(b1-4)[Fuc(a1-6)]GlcNAc
How it was run: as §1

[11] = target: GlcNAc(b1-3)Gal(b1-4)GlcNAc(b1-3)Gal(b1-4)GlcNAc(b1-2)[GlcNAc(b1-3)Gal(b1-4)GlcNAc(b1-3)Gal(b1-4)GlcNAc(b1-6)]Man(a1-6)[GlcNAc(b1-3)Gal(b1-4)GlcNAc(b1-3)Gal(b1-4)GlcNAc(b1-2)Man(a1-3)]Man(b1-4)GlcNAc(b1-4)[Fuc(a1-6)]GlcNAc
How it was run: as §1

[12] = target: GlcNAc(b1-3)Gal(b1-4)GlcNAc(b1-3)Gal(b1-4)GlcNAc(b1-3)Gal(b1-4)GlcNAc(b1-2)Man(a1-3)[GlcNAc(b1-3)Gal(b1-4)GlcNAc(b1-3)Gal(b1-4)GlcNAc(b1-3)Gal(b1-4)GlcNAc(b1-2)Man(a1-6)]Man(b1-4)GlcNAc(b1-4)[Fuc(a1-6)]GlcNAc
How it was run: as §1

[13] = target: GlcNAc(b1-3)Gal(b1-4)GlcNAc(b1-3)Gal(b1-4)GlcNAc(b1-3)Gal(b1-4)GlcNAc(b1-3)Gal(b1-4)GlcNAc(b1-2)Man(a1-3)[GlcNAc(b1-3)Gal(b1-4)GlcNAc(b1-3)Gal(b1-4)GlcNAc(b1-3)Gal(b1-4)GlcNAc(b1-3)Gal(b1-4)GlcNAc(b1-2)Man(a1-6)]Man(b1-4)GlcNAc(b1-4)GlcNAc
How it was run: as §1

[14] = target: GlcNAc(b1-3)Gal(b1-4)GlcNAc(b1-3)Gal(b1-4)GlcNAc(b1-3)Gal(b1-4)GlcNAc(b1-3)Gal(b1-4)GlcNAc(b1-2)Man(a1-3)[GlcNAc(b1-3)Gal(b1-4)GlcNAc(b1-3)Gal(b1-4)GlcNAc(b1-3)Gal(b1-4)GlcNAc(b1-3)Gal(b1-4)GlcNAc(b1-2)Man(a1-6)]Man(b1-4)GlcNAc(b1-4)[Fuc(a1-6)]GlcNAc
How it was run: as §1

[15] = target: GlcNAc(b1-3)Gal(b1-4)GlcNAc(b1-3)Gal(b1-4)GlcNAc(b1-3)Gal(b1-4)GlcNAc(b1-3)Gal(b1-4)GlcNAc(b1-2)[GlcNAc(b1-3)Gal(b1-4)GlcNAc(b1-3)Gal(b1-4)GlcNAc(b1-3)Gal(b1-4)GlcNAc(b1-3)Gal(b1-4)GlcNAc(b1-6)]Man(a1-6)[GlcNAc(b1-3)Gal(b1-4)GlcNAc(b1-3)Gal(b1-4)GlcNAc(b1-3)Gal(b1-4)GlcNAc(b1-3)Gal(b1-4)GlcNAc(b1-2)Man(a1-3)]Man(b1-4)GlcNAc(b1-4)[Fuc(a1-6)]GlcNAc
How it was run: as §1

[16] = target: GlcNAc(b1-3)Gal(b1-4)GlcNAc(b1-3)Gal(b1-4)GlcNAc(b1-3)GalNAc
How it was run: as §1

[17] = target: GlcNAc(b1-3)Gal(b1-4)GlcNAc(b1-3)GalNAc
How it was run: as §1

[18] = target: GlcNAc(b1-3)Gal(b1-4)GlcNAc(b1-3)[GlcNAc(b1-3)Gal(b1-4)GlcNAc(b1-3)]GalNAc
How it was run: as §1

[19] = target: GlcNAc(b1-3)Gal(b1-4)GlcNAc(b1-6)[Gal(b1-3)]GalNAc
How it was run: as §1

[20] = target: GlcNAc(b1-3)Gal(b1-4)GlcNAc(b1-6)[GlcNAc(b1-3)Gal(b1-3)]GalNAc
How it was run: as §1

[21] = target: GlcNAc(b1-3)Gal(b1-4)GlcNAc(b1-6)[GlcNAc(b1-3)]Gal(b1-4)GlcNAc
How it was run: as §1

GlcNAc(b1-3)GalNAc = target: GlcNAc(b1-3)GalNAc
How it was run: as §1

[22] = target: GlcNAc(b1-3)[GlcNAc(b1-4)][GlcNAc(b1-6)]GlcNAc
How it was run: as §1

[23] = target: GlcNAc(b1-3)[GlcNAc(b1-6)]Gal(b1-4)GlcNAc
How it was run: as §1

[24] = target: GlcNAc(b1-3)[GlcNAc(b1-6)]GalNAc
How it was run: as §1

[25] = target: GlcNAc(b1-4)Gal(b1-4)GlcNAc
How it was run: as §1

[26] = target: GlcNAc(b1-4)GlcNAc(b1-4)GlcNAc
How it was run: as §1

[27] = target: GlcNAc(b1-4)GlcNAc(b1-4)GlcNAc(b1-4)GlcNAc(b1-4)GlcNAc
How it was run: as §1

[28] = target: GlcNAc(b1-4)GlcNAc(b1-4)GlcNAc(b1-4)GlcNAc(b1-4)GlcNAc(b1-4)GlcNAc
How it was run: as §1

[29] = target: GlcNAc(b1-4)[GlcNAc(b1-6)]GalNAc
How it was run: as §1

[30] = target: GlcNAc(b1-6)Gal(b1-4)GlcNAc
How it was run: as §1

GlcNAc(b1-6)GalNAc = target: GlcNAc(b1-6)GalNAc
How it was run: as §1

[31] = target: GlcNAc6S(b1-3)Gal(b1-4)GlcNAc
How it was run: as §1

Kdn(a2-3)Gal(b1-3)GalNAc = target: Kdn(a2-3)Gal(b1-3)GalNAc
How it was run: as §1

Kdn(a2-3)Gal(b1-3)GlcNAc = target: Kdn(a2-3)Gal(b1-3)GlcNAc
How it was run: as §1

B1: PX14351B-bth-512-36-512 (Bacteroides thetaiotaomicron) (protein)
chain: ASETQQWKTLEDTRSALMGVYGLTRAALADNNTHWICGDLRKGDFTVYKRSDLQAVSDNELNKPYDLLKKVSNWRRFYAVINAASVFMEKAPRTVELDRSYSEQNLKYDIAQVRALRAFAYFYMVRIWGDVPLVTYSYDNGTFPSMPRTDAQTVLSYAKAELLTAIEDLPYQYGTQTNLYYGSYGAQWQGKLFNKLSAYSVLAHICAWQGNYAEAETYSAFIIDHASEINAKYTSIADLTSETGLFYSNASVKGSRILGFNFAHNDNEATQSGHLEQLTLAYPLVQKSYPEIYISKDSLFSIFTNFDDLRFGIIDTIKYSSYYVQNLNEETPVFSKIKIIQDGSAKDNDFGVFGSSIVFTRLEDITLLRAEALCALNRSTEAVSYLNMIRTNRGLREVSFKKDFGNNRESLIAEIFEERRRELMGEGWRWYDLVRRQKLMKDNEAFLRLISSGGIYWPVSEDIITANSQIEQNEFWK
- glycan array binding signal (z-score) [1]: -0.32
- glycan array binding signal (z-score) [2]: 0.045
- glycan array binding signal (z-score) [3]: -0.242
- glycan array binding signal (z-score) (GlcNAc(b1-3)Fuc): -0.312
- glycan array binding signal (z-score) (GlcNAc(b1-3)Gal): -0.293
- glycan array binding signal (z-score) (GlcNAc(b1-3)Gal(b1-4)Glc): -0.16
- glycan array binding signal (z-score) [4]: -0.298
- glycan array binding signal (z-score) [5]: -0.058
- glycan array binding signal (z-score) [6]: -0.035
- glycan array binding signal (z-score) [7]: -0.09
- glycan array binding signal (z-score) [8]: -0.107
- glycan array binding signal (z-score) [9]: 0.645
- glycan array binding signal (z-score) [10]: -0.034
- glycan array binding signal (z-score) [11]: -0.167
- glycan array binding signal (z-score) [12]: -0.018
- glycan array binding signal (z-score) [13]: 0.559
- glycan array binding signal (z-score) [14]: -0.07
- glycan array binding signal (z-score) [15]: -0.136
- glycan array binding signal (z-score) [16]: -0.364
- glycan array binding signal (z-score) [17]: -0.285
- glycan array binding signal (z-score) [18]: -0.416
- glycan array binding signal (z-score) [19]: -0.321
- glycan array binding signal (z-score) [20]: -0.304
- glycan array binding signal (z-score) [21]: -0.283
- glycan array binding signal (z-score) (GlcNAc(b1-3)GalNAc): -0.069
- glycan array binding signal (z-score) [22]: 0.283
- glycan array binding signal (z-score) [23]: -0.14
- glycan array binding signal (z-score) [24]: 0.052
- glycan array binding signal (z-score) [25]: -0.133
- glycan array binding signal (z-score) [26]: -0.369
- glycan array binding signal (z-score) [27]: -0.219
- glycan array binding signal (z-score) [28]: -0.219
- glycan array binding signal (z-score) [29]: -0.124
- glycan array binding signal (z-score) [30]: -0.262
- glycan array binding signal (z-score) (GlcNAc(b1-6)GalNAc): -0.247
- glycan array binding signal (z-score) [31]: -0.329
- glycan array binding signal (z-score) (Kdn(a2-3)Gal(b1-3)GalNAc): 0.222
- glycan array binding signal (z-score) (Kdn(a2-3)Gal(b1-3)GlcNAc): -0.272
